Columns and labels:
[1] = target: T1, EcoβCA (Escherichia coli, UniProt P61517); experiment: stopped-flow CO2 hydration; format: biochemical; conditions: pH […] HEPES, […] Na2SO4, […] min preincubation, r.t.; read-out: KI (nM) * / Bacterial Isoforms / Eco βCA
T1 construct: gene can; recombinant, obtained in-house
Source text: stopped-flow CO2 hydration on EcoβCA

Sequences of proteins named here, by UniProt entry; tags and fusion partners are left off. A change or cut given only in a name is not applied to a line headed by its entry.
UniProt P61517: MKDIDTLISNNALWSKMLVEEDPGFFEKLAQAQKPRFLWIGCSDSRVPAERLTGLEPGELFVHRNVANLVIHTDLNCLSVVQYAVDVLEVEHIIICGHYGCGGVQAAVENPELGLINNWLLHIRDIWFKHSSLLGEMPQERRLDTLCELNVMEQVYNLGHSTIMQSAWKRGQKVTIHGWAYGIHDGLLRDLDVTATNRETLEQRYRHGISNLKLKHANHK

[2] = target: T2, HpβCA (Helicobacter pylori, UniProt Q9ZN54); experiment: stopped-flow CO2 hydration; format: biochemical; conditions: read-out: KI (nM) * / Bacterial Isoforms / Hp βCA
T2 construct: gene cynT; recombinant, obtained in-house
T2 sequence (Q9ZN54 1-221): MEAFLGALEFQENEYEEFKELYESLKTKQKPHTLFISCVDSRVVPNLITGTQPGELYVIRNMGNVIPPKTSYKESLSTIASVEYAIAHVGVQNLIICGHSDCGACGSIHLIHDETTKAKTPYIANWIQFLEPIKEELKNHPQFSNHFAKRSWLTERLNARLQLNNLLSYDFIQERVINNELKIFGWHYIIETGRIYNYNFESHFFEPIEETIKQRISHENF
Source text: stopped-flow CO2 hydration on HpβCA

## CC(=O)Nc1nnc(S(N)(=O)=O)s1 [acetazolamide, reference compound]
[1]
  Ki: 227 nM
[2]
  Ki: 40 nM

Source: article PMC11357054, “Azobenzenesulfonamide Carbonic Anhydrase Inhibitors as New Weapons to Fight Helicobacter pylori: Synthesis, Bioactivity Evaluation, In Vivo Toxicity, and Computational Studies” (Pharmaceuticals, 2024)
